PubChem BioAssay AID1224830, NIAID, 2016

Purpose: 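Regulators of TLR4 signalling towards TNF-alpha in macrophage-like cells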 (primary screen)
Cell system: human THP-1 monocytic leukaemia cells, TNF dual-luciferase reporter clone, PMA-differentiated to macrophage-like cells
Knock-down reagent: siRNA pool against human genes, 50 nM
Duration: LPS for 4 h, given about 3 days after siRNA transfection
Treatment: bacterial LPS (TLR4 ligand), 10 ng/ml
Measured: 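TNF firefly reporter luminescence divided by renilla, normalised to the plate median, then turned into a robust z-score for each replicate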
Reading the numbers: TNF reporter robust z-score: higher = stronger TNF reporter response to LPS
Call rule: 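Each well counts as active if its z-score is over 2.8 or under -1.5; controls are left without a call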
The deposit covers about 18,000 reagents; this is a random part of them. About 2,900 of all reagents (16%) count as active. 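Calls are made per well; low scores hint the gene aids the LPS response, high scores that it dampens it.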 Repeated entries: four replicate wells of each siRNA pool. No sequences are given here.

Gene | TNF reporter robust z-score | outcome
ST18 | -0.53 | inactive
ST18 | 0.06 | inactive
ST18 | -0.59 | inactive
ST18 | 0.54 | inactive
MUSTN1 | -1.04 | inactive
MUSTN1 | -0.89 | inactive
MUSTN1 | -1.4 | inactive
MUSTN1 | -0.9 | inactive
PHGDH | 0.37 | inactive
PHGDH | 1.93 | inactive
PHGDH | 0.91 | inactive
PHGDH | 0.65 | inactive
PLGRKT | -0.13 | inactive
PLGRKT | -0.75 | inactive
PLGRKT | -0.08 | inactive
PLGRKT | -0.53 | inactive
SMIM29 | 0.14 | inactive
SMIM29 | 0.41 | inactive
SMIM29 | 0.13 | inactive
SMIM29 | 0.56 | inactive
CENPX | 0.82 | inactive
CENPX | 0.24 | inactive
CENPX | 0.72 | inactive
CENPX | -0.15 | inactive
MTHFSD | -0.32 | inactive
MTHFSD | 1.17 | inactive
MTHFSD | 1.04 | inactive
MTHFSD | -0.87 | inactive
SGMS2 | 0.51 | inactive
SGMS2 | 1.21 | inactive
SGMS2 | 1.13 | inactive
SGMS2 | -0.04 | inactive
FABP1 | -0.89 | inactive
FABP1 | -0.8 | inactive
FABP1 | -1.06 | inactive
FABP1 | -0.65 | inactive
SPRYD7 | -0.14 | inactive
SPRYD7 | 0.45 | inactive
SPRYD7 | 0.7 | inactive
SPRYD7 | 0.73 | inactive
MSANTD3 | 0.55 | inactive
MSANTD3 | 1.59 | inactive
MSANTD3 | 1.6 | inactive
MSANTD3 | 0.85 | inactive
ZNF600 | 0.01 | inactive
ZNF600 | 1.36 | inactive
ZNF600 | -0.63 | inactive
ZNF600 | 165 | active
CD300LF | 0.29 | inactive
CD300LF | -1.15 | inactive
CD300LF | -1.17 | inactive
CD300LF | -0.97 | inactive
CD300LF | 2.01 | inactive
CD300LF | 2.25 | inactive
CD300LF | 0.92 | inactive
KCTD9 | -1.47 | inactive
KCTD9 | -0.84 | inactive
KCTD9 | -1.03 | inactive
KCTD9 | -0.63 | inactive
PTTG1IP | -1.32 | inactive
PTTG1IP | -1.05 | inactive
PTTG1IP | -1.39 | inactive
PTTG1IP | -0.98 | inactive
DSN1 | 0.65 | inactive
DSN1 | 0.6 | inactive
DSN1 | 0.09 | inactive
DSN1 | 2.06 | inactive
PTPN23 | -0.08 | inactive
PTPN23 | 0.62 | inactive
PTPN23 | -0.11 | inactive
PTPN23 | 1.9 | inactive
PI4KB | -0.27 | inactive
PI4KB | -0.54 | inactive
PI4KB | -1.21 | inactive
PI4KB | -0.36 | inactive
TMEM42 | -1.05 | inactive
TMEM42 | -1.3 | inactive
TMEM42 | -1.32 | inactive
TMEM42 | -0.85 | inactive
CNGA4 | -0.98 | inactive
CNGA4 | 0.93 | inactive
CNGA4 | 0.17 | inactive
CNGA4 | -0.33 | inactive
IFITM3 | 2.76 | inactive
IFITM3 | 3.1 | active
IFITM3 | 2.21 | inactive
IFITM3 | 0.24 | inactive
CYP11B2 | 1.43 | inactive
CYP11B2 | 0.52 | inactive
CYP11B2 | 1.27 | inactive
CYP11B2 | 1.09 | inactive
KANK2 | -1.33 | inactive
KANK2 | 0 | inactive
KANK2 | -0.94 | inactive
KANK2 | 1.83 | inactive
CLTC | -0.83 | inactive
CLTC | -0.77 | inactive
CLTC | -0.89 | inactive
CLTC | -0.09 | inactive
TCTN1 | 0.1 | inactive
TCTN1 | 0.08 | inactive
TCTN1 | -0.47 | inactive
TCTN1 | -0.61 | inactive
TBC1D21 | 0.61 | inactive
TBC1D21 | 1.17 | inactive
TBC1D21 | 1.01 | inactive
TBC1D21 | 0.88 | inactive
HLA-DQB1 | -0.42 | inactive
HLA-DQB1 | -0.51 | inactive
HLA-DQB1 | -1.41 | inactive
HLA-DQB1 | 0.28 | inactive
GUCA1B | -1.07 | inactive
GUCA1B | 0.4 | inactive
GUCA1B | 0.32 | inactive
GUCA1B | 3.13 | active
COQ4 | 1.96 | inactive
COQ4 | 0.91 | inactive
COQ4 | -0.04 | inactive
COQ4 | 0.44 | inactive
C12orf42 | 0.03 | inactive
C12orf42 | 0.09 | inactive
C12orf42 | 0.94 | inactive
C12orf42 | 0.48 | inactive
PJA2 | -1.41 | inactive
PJA2 | -0.24 | inactive
PJA2 | -0.29 | inactive
PJA2 | 0.64 | inactive
GPR15 | -1.57 | active
GPR15 | -0.8 | inactive
GPR15 | -0.69 | inactive
GPR15 | -1.45 | inactive
MRM2 | 1.63 | inactive
MRM2 | 2.22 | inactive
MRM2 | 1.25 | inactive
MRM2 | 1.98 | inactive
TRIM44 | 1.39 | inactive
TRIM44 | 1.85 | inactive
TRIM44 | 0.06 | inactive
TRIM44 | 0.29 | inactive
CHRNA1 | -1.11 | inactive
CHRNA1 | 0.2 | inactive
CHRNA1 | -0.82 | inactive
CHRNA1 | 2.65 | inactive

Targets listed so far whose target name starts with Z or z:
Gene | TNF reporter robust z-score | outcome
ZNF600 | 0.01 | inactive
ZNF600 | 1.36 | inactive
ZNF600 | -0.63 | inactive
ZNF600 | 165 | active
